Values quoted from earlier work as cited in patent US20240216383A1, “FORMULATIONS AND METHODS FOR TREATING ERECTILE DYSFUNCTION” (Strategic Drug Solutions, Inc., priority 2020, published 2024).
Some results were stated once for a whole list of compounds, not compound by compound. At least one structure is not confirmed: it was looked up by name or label, or the drawing left a doubt.

Settings: oral; terminal half-life; cited from earlier work

CCCc1nc(C)c2c(=O)[nH]c(-c3cc(S(=O)(=O)N4CCNCC4)ccc3OCC)nn12 [MI metabolite]
half-life: 4 to 5 h

CCCc1nc(C)c2c(=O)[nH]c(-c3cc(S(=O)(=O)N4CCN(CC)CC4)ccc3OCC)nn12 [vardenafil]
half-life: 4 to 5 h
